Data reported in US12011482B2, “Chlorin derivatives or pharmaceutically acceptable salts thereof, preparation method and use thereof, and combination thereof with an ultrasonic medical system” (GUANGZHOU EEC BIOTECH DEVELOPMENT CO., LTD., priority 2020, dated 2024).
Some entries share one result that the patent states for a list of compounds. For at least one compound, name, drawing or mass did not settle the structure.

System: HepG2 cells
Assay: MTT dark toxicity and phototoxicity, cell survival rate
Format: cell-based
Conditions: HepG2, 1 μM, light irradiation 1.7 J·cm^−2, 660 nm, 10 min

## C=Cc1c(C)c2cc3nc(c(CC(=O)O)c4[nH]c(cc5nc(cc1[nH]2)C(C)=C5CC)c(C)c4C(=O)O)[C@@H](CCC(=O)O)[C@@H]3C [CHC, chlorin e6]
  cell survival rate (phototoxicity): above 80%
